The experiment in a line: qHTS Assay to Find Inhibitors of Chronic Active B-Cell Receptor Signaling. Particulars: ABC-DLBCL IkBa-CBG/CBR reporter, luminescence ratio (green luciferase fused to IkBa over red control in TMD8 lymphoma cells), 4 h. In a few lines:
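TMD8 human ABC-DLBCL cells with doxycycline-inducible IκBα–green luciferase fusion and unfused red luciferase, in 0.5% FBS medium; compounds up to 46 uM, 4 h at 37C. Green/red luminescence ratio, filter-overlap corrected, fitted to concentration-response curves.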
(Quantitative high-throughput screening tests each substance at several concentrations.)

Where [1] appears, read: measured here: CBR red luminescence, cell number.
Where [2] appears, read: measured here: IkBa-CBG green luminescence.

Some of the results follow. Further columns of the screen follow, without active or inactive calls. Most of these compounds were active or inconclusive in the main read-out, so they are no random draw. The note in brackets gives the kind of curve behind each potency; many fits are weak.

A word on the AC50: it is the concentration giving half of the maximal activity seen. For `Cc1ccccc1S(=O)(=O)N1[C@@H](c2ccc(Cl)cc2)C(C(=O)O)=CC[C@H]1c1ccc(Cl)cc1`, under setting [1], the AC50 is 23.1 µM [falling, partial curve, poor fit].

Consider `Cc1cccc(-c2nnc(SCC(=O)NC3CC3)n2C)c1`, for which, under setting [1], the AC50 was 8.91 µM [rising, partial curve].

As for `C[C@H](CO)N1C[C@H](C)[C@@H](CN(C)C(=O)Nc2ccc(C(F)(F)F)cc2)Oc2c(NC(=O)Nc3ccc(C(F)(F)F)cc3)cccc2C1=O`, under setting [1], the AC50 is 20.6 µM [falling, single point].

With `COc1cccc(NC(=O)CN(c2ccc([N+](=O)[O-])cc2)S(=O)(=O)c2ccccc2)c1`, the AC50 under setting [1] was 29.1 µM [falling, partial curve, poor fit].

`CC(C)(C)C(=O)NNC(=O)c1cc(C(C)(C)C)nn1Cc1ccccc1`: the AC50 under setting [1] is 35.5 µM [rising, single point].

On to `CCOC(=O)c1sc(NC(=O)c2ccc3nc[nH]c3c2)nc1C`, for which the AC50 under setting [1] was 0.708 µM [falling, full curve].

Consider `COCCCNC(=O)CC1C[C@H](C(=O)N2CCCCC2)[C@@]2(CCc3ccccc3)c3[nH]c4ccc(OC)cc4c3CCN2C1=O` (some centres not stated), for which the AC50 under setting [1] was 25.9 µM [rising, single point].

Consider `CC1CCN(c2nnc(N)s2)CC1`, for which, under setting [1], the AC50 was 8.91 µM [falling, partial curve, poor fit].

As for `CCCC(C(=O)O)n1c(O)c(C=C2N=c3ccccc3=N2)sc1=S` (configuration not stated), the AC50 under setting [1] was 1 µM [falling, partial curve, poor fit].

For `O=c1[nH]c2ccccc2n1CCCSCCCn1c(=O)[nH]c2ccccc21`, the AC50 under setting [1] is 11.2 µM [falling, partial curve, poor fit].

As to `CC(=O)c1cccc(Nc2ccc(-c3ccccc3F)nn2)c1`, under setting [1], the AC50 was 14.1 µM [falling, partial curve].

Consider `C=C(C)C(=O)Nc1nnc(-c2cccs2)s1`, for which the AC50 under setting [1] is 29.1 µM [falling, single point].

With `O=C(CSC1=NCCN1)Nc1cccc([N+](=O)[O-])c1`, under setting [1], the AC50 is 14.1 µM [falling, partial curve, poor fit].

Regarding `O=C(NCC1CCCO1)c1ccccc1-c1nc(-c2ccc(Cl)cc2)no1` (configuration not stated), the AC50 under setting [1] is 13 µM [rising, partial curve].

`CCCCn1nnc(NC(=S)NC(=O)c2cccs2)n1`: the AC50 under setting [1] is 20.6 µM [falling, single point] and the AC50 under setting [2] is 25.9 µM [falling, single point].

`Cc1cc(OCC(=O)O/N=C(\N)c2ccccc2)ccc1Br`: the AC50 under setting [1] was 29.1 µM [falling, single point].

Consider `Oc1ccc(NC(=S)N=Nc2c(O)[nH]c3ccc(Br)cc23)cc1`, for which the AC50 was 14.1 µM [falling, partial curve] under setting [1] and 31.6 µM [rising, partial curve, poor fit] under setting [2].

In the case of `CCOC(=O)N1CCN(c2c(NCc3ccc(Cl)cc3)c(=O)c2=O)CC1`, the AC50 under setting [1] is 29.1 µM [rising, single point] and the AC50 under setting [2] is 18.4 µM [falling, single point].

Take `O=c1[nH]c(C(Cl)Cl)nc2sc3c(c12)CCN(Cc1ccccc1)C3`: the AC50 under setting [1] is 23.1 µM [rising, partial curve, poor fit].

Consider `O=c1oc2ccccc2c(NC2CCCCC2)c1NS(=O)(=O)c1ccc(Cl)cc1`, for which, under setting [1], the concentration at half-maximal activity (AC50) is 2.82 µM [falling, partial curve, poor fit].

As to `O=C(/C=C/c1ccccc1)Nc1ccc(Cl)cn1`, the AC50 under setting [1] is 3.55 µM [falling, full curve].

Take `O=C(O)CC(NC(=O)c1ccccc1NC(=O)c1ccccc1)C(=O)O` (configuration not stated): the AC50 under setting [1] is 7.31 µM [falling, partial curve].

`COc1ccc(Cc2nn3c(-c4cc(OC)c(OC)c(OC)c4)nnc3s2)cc1`: the AC50 under setting [1] is 8.2 µM [falling, partial curve, poor fit].

As to `O=C(CN1CCN(C(=O)c2c(F)cccc2F)CC1)Nc1ccccc1F`, the AC50 under setting [1] is 29.1 µM [rising, single point].

Consider `C/C(N)=C(/C#N)C(=O)CSc1nnc(-c2ccccc2)n1C`, for which the AC50 under setting [1] is 7.08 µM [rising, partial curve, poor fit].

As for `O=C1NC(=O)/C(=C/C(=O)N2CCOCC2)S1`, under setting [1], the AC50 is 11.2 µM [falling, partial curve].

As for `O=C(Cn1cc(C(=O)COc2ccccc2)c2ccccc21)NCc1ccco1`, the AC50 under setting [1] is 20.6 µM [falling, single point].

Turning to `Cc1ccc(C2CC(=O)C=C(Nc3ccc(Cl)cc3)C2)cc1` (configuration not stated), the AC50 under setting [1] is 0.731 µM [rising, partial curve, poor fit].

As to `O=C(CCNC(=O)c1ccc([N+](=O)[O-])cc1)Nc1cccc(S(=O)(=O)N2CCCCC2)c1`, the AC50 under setting [1] was 11.2 µM [falling, partial curve, poor fit].

For `O=C(NCc1ccncc1)C(F)(F)C(F)(F)C(=O)NCc1ccncc1`, the AC50 under setting [1] was 1.84 µM [falling, partial curve, poor fit].

For `CC(C)=CCCC(C)CN1CCC(n2nccc2NC(=O)C2CCCC2)CC1` (configuration not stated), the AC50 under setting [1] is 0.708 µM [rising, partial curve, poor fit].

For the molecule `COc1ccccc1NC(=O)Cn1ccn(-c2cccc3ccccc23)c(=O)c1=O`, the AC50 under setting [1] is 1.84 µM [falling, full curve, poor fit].

Turning to `COc1ccccc1NC(=O)c1csc2c1CCC(C)C2` (configuration not stated), the AC50 under setting [1] was 3.16 µM [rising, partial curve].

In the case of `Cc1ccc(C(=O)N/N=C\c2c(C)nn(-c3ccccc3)c2Cl)cn1`, the AC50 under setting [1] is 7.31 µM [rising, partial curve, poor fit].

As to `Oc1ccc(Nc2ncnc3ccccc23)cc1`, under setting [1], the AC50 is 7.94 µM [falling, partial curve].

With `COc1ccc(C(CCNCc2ccc(OC(C)C)cc2)c2ccccc2OC)cc1` (configuration not stated), under setting [1], the AC50 is 15.8 µM [falling, single point].

Turning to `CCOC(=O)c1c(C)[nH]c(C)c1S(=O)(=O)N(C)CC(=O)NCc1ccc(Cl)cc1`, the AC50 under setting [1] was 5.01 µM [rising, full curve, poor fit].

For the molecule `CCN(CCCNC(=O)CC(C(=O)N1CCc2ccccc21)n1ccnc1)c1ccccc1` (configuration not stated), the AC50 under setting [1] is 35.5 µM [falling, single point].

In the case of `O=C(O)c1ccc2nc(-c3cc4cc(Cl)ccc4oc3=O)[nH]c2c1`, the AC50 under setting [1] was 0.1 µM [falling, full curve].

For the origin of these results see PubChem BioAssay AID493014 (National Center for Advancing Translational Sciences (NCATS), 2011).
